Source: article PMC11094195
These are yes or no findings as the source states them, for the method shown. Binding seen in cells or lysates may run through a third protein. A result given as binding can be weak or reduced; the word gives no strength.

Protein sequences, listed by entry. Tags and fused reporters are not part of them. Lines headed by an entry give the natural chain unless they say otherwise; changes in a name come on top.
UniProt O75928: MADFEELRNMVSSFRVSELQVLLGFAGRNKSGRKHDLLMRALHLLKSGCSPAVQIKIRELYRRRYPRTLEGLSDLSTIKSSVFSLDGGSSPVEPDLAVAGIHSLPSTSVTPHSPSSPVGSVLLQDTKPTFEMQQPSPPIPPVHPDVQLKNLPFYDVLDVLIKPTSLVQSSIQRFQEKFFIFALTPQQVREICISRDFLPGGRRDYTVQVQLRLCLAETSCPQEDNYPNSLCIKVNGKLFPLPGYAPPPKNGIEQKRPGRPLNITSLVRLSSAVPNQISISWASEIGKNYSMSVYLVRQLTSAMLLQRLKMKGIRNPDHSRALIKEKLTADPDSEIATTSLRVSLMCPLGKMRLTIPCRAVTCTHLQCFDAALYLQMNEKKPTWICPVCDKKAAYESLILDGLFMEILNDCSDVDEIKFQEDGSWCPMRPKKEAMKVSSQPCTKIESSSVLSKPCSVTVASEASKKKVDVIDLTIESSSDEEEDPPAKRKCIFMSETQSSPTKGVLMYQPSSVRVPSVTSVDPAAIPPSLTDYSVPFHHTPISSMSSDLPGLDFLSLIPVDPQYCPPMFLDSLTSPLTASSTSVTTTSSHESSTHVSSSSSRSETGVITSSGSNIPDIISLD
UniProt P23258: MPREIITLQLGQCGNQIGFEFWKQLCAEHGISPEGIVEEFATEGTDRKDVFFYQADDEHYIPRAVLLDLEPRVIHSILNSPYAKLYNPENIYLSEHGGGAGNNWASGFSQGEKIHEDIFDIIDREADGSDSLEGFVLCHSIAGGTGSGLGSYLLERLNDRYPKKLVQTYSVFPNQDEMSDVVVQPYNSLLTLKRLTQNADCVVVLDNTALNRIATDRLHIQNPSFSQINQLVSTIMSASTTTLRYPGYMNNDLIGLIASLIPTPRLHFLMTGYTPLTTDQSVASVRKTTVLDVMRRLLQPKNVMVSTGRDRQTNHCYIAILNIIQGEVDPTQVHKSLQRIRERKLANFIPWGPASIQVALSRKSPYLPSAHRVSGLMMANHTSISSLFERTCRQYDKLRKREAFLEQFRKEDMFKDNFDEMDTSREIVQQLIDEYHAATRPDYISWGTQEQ

Legend:
[1] = molecular target: PIAS2 beta isoform (PIAS2b), endogenous (human (endogenous in 8305C)) (UniProt O75928); experiment: co-IP; endogenous proteins in 8305C extracts synchronized at mitosis (DT/R-6 h; for TUBB3 also DT/R-0 h), antibody overnight, protein G-Sepharose, 5 washes with HNTG buffer, western blot
[2] = molecular target: EGFP-hPIAS2b (human) (UniProt O75928); experiment: pull-down; GFP-Trap beads with 2 mg lysate of 8305C cells transfected with EGFP constructs, SUMO-lysis buffer with N-ethylmaleimide (non-denaturing), 4 °C overnight, western blot; asynchronous, DT/R-0 h and DT/R-6 h cells

binding [1]: binds
binding [2]: binds
Substance: gamma tubulin, endogenous (from UniProt P23258)
